According to publication PMC8964682, “Structural and biochemical characterization of in vivo assembled Lactococcus lactis CRISPR-Csm complex” (Communications Biology, 2022):
Positions count from the first letter of the chain named. Numbers in names are those of the source. Results are given in words; binding and its absence hold for the method and conditions named. For part of these data: Binding seen in cells or lysates may run through a third protein. Some results given as binding are weak or reduced against the parent protein; the word gives no strength. For part of these data: Sequences can lack the tags named with a protein.

Tests used:
[1] = target: T1, Lactococcus lactis Csm4, subunit of the LlCsm complex (Lactococcus lactis) (UniProt L0CFH1); experiment: cross-linking; CTR- and NTR-bound pre-assembled RNP complexes at ~10 nM, BS3-d0 / BS3-d4 for 60 min, SDS-PAGE, trypsin digestion, LC-MS/MS; abundance of cross-links compared between CTR- and NTR-bound; both purified
T1 sequence: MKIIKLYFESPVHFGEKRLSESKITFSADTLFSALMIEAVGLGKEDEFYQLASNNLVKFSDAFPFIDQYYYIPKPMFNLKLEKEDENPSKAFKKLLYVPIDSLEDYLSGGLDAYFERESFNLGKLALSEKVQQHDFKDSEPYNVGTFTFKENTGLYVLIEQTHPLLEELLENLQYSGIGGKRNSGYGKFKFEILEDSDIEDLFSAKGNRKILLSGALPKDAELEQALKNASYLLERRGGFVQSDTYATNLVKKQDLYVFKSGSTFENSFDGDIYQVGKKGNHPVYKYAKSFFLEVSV

[2] = target: T1, Lactococcus lactis Csm4, subunit of the LlCsm complex (Lactococcus lactis); experiment: cryo-EM structure; apo subpopulation from a mixture of LlCsm with DTR, no DTR bound; 4.5 Å; no model built, used only to confirm presence and placement of the subunits; both purified
[3] = target: T2, Lactococcus lactis Csm2 with N-terminal His6-tag, subunit of the LlCsm complex (Lactococcus lactis) (UniProt L0CFW2); experiment: as above
T2 sequence: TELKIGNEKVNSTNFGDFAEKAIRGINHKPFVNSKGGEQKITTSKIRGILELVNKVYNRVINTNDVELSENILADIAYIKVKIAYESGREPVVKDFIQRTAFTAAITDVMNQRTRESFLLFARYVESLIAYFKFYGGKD

[4] = target: T1, Lactococcus lactis Csm4, subunit of the LlCsm complex (Lactococcus lactis); experiment: cryo-EM structure; co-purified LlCsm (Csm1 D14N, Csm3 D30A)-crRNA incubated with CTR at 1:2, 37 °C, 60 min, then SEC; no ATP; two classes, CTR-43 (3.0 Å) and CTR-32 (3.3 Å); both purified
[5] = target: T2, Lactococcus lactis Csm2 with N-terminal His6-tag, subunit of the LlCsm complex (Lactococcus lactis); experiment: as above
[6] = target: T1, Lactococcus lactis Csm4, subunit of the LlCsm complex (Lactococcus lactis); experiment: cryo-EM structure; co-purified LlCsm (Csm1 D14N, Csm3 D30A)-crRNA without target RNA (apo); 2.9 Å; both purified
[7] = target: T1, Lactococcus lactis Csm4, subunit of the LlCsm complex (Lactococcus lactis); experiment: cryo-EM structure; co-purified LlCsm (Csm1 D14N, Csm3 D30A)-crRNA incubated with NTR at 1:2, 37 °C, 60 min, then SEC; 3.4 Å; both purified
[8] = target: T2, Lactococcus lactis Csm2 with N-terminal His6-tag, subunit of the LlCsm complex (Lactococcus lactis); experiment: as above
[9] = target: T3, Lactococcus lactis Csm3 Asp30Ala, subunit of the LlCsm (D14N)1(D30A)3 complex (Lactococcus lactis) (UniProt L0CEA3); experiment: cryo-EM structure; apo subpopulation from a mixture of LlCsm with DTR, no DTR bound; 4.5 Å; no model built, used only to confirm presence and placement of the subunits; both purified
T3 sequence: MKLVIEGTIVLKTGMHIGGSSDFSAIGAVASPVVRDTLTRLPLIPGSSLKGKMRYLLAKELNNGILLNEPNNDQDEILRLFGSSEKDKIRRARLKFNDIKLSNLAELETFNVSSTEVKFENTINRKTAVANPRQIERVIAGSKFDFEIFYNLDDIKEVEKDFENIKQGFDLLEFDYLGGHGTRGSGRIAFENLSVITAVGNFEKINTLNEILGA

[10] = target: T3, Lactococcus lactis Csm3 Asp30Ala, subunit of the LlCsm (D14N)1(D30A)3 complex (Lactococcus lactis); experiment: cryo-EM structure; co-purified LlCsm (Csm1 D14N, Csm3 D30A)-crRNA incubated with CTR at 1:2, 37 °C, 60 min, then SEC; no ATP; two classes, CTR-43 (3.0 Å) and CTR-32 (3.3 Å); both purified
[11] = target: T2, Lactococcus lactis Csm2 with N-terminal His6-tag, subunit of the LlCsm complex (Lactococcus lactis); experiment: pull-down + SEC; Cas6, Csm1-6 and crRNA co-expressed in E. coli; N-terminally His-tagged Csm2 as bait; metal-affinity then size-exclusion chromatography in 20 mM HEPES pH 7.5, 200 mM NaCl, 5 mM MgCl2, 14 mM 2-mercaptoethanol; silver-stained gel; the complex carries the 37-nt crRNA
[12] = target: T3, Lactococcus lactis Csm3 Asp30Ala, subunit of the LlCsm (D14N)1(D30A)3 complex (Lactococcus lactis); experiment: cryo-EM structure; co-purified LlCsm (Csm1 D14N, Csm3 D30A)-crRNA without target RNA (apo); 2.9 Å; both purified
[13] = target: T3, Lactococcus lactis Csm3 Asp30Ala, subunit of the LlCsm (D14N)1(D30A)3 complex (Lactococcus lactis); experiment: cryo-EM structure; co-purified LlCsm (Csm1 D14N, Csm3 D30A)-crRNA incubated with NTR at 1:2, 37 °C, 60 min, then SEC; 3.4 Å; both purified

Measured: binding

B1: Lactococcus lactis Csm3 Asp30Ala, subunit of the LlCsm (D14N)1(D30A)3 complex (natural protein)
chain: T3 sequence
notes: Csm3 of the plasmid-encoded (pKLM) Type III-A CRISPR-Cas system of Lactococcus lactis, with the RNase-site mutation D30A; Csm3.1 is the Csm3 copy closest to Csm4; There are four copies in CTR-43, NTR and apo, and three in CTR-32; also called Csm3.1; Csm3.2
not listed: [9] | [10] | [11] | [12] | [13]
binds: all other assays above

B2: Lactococcus lactis Csm5, subunit of the LlCsm complex (protein, UniProt L0CG31 1-352)
chain: MKKTYRVTLTALGPIFIGGGEKLKKYEYIFDKQKKVAHMIDHTKFTKYLLEKNLLDDFTSRVNSHFDLYDYLVNKKGIVFMPLVKYSVPVAQFRTEVKNRFGKPISSPPMNDLNTFVKDAFGRPYIPGSSLKGALRTAILNDLKEDTKENEVFAHLQVSDSETIDLENLKVYQKVDYSKTAKPLPLYRECLKPNTEITFTVSFDDEYLTLKKIQNALHKTYQHYYIKWLKGGKVGETLIKGVYDSHADELKKNTFALDQPSQNQGEIIYIGGGAGFVSKTLHYKSKNRDQARNDSFDILKQLFRTTYSKMRSVPDNVPVALKLAVETKTFNGRVTGKHYLEMGKARIKLEEL
not listed: [1] | [2] | [4] | [6] | [7]
binds: all other assays above

B3: Lactococcus lactis Csm3, wild type, subunit of the LlCsm complex (protein, UniProt L0CEA3 1-214)
chain: T3 sequence with A30D
binds: [11]

B4: Lactococcus lactis Csm4, subunit of the LlCsm complex (protein, UniProt L0CFH1 1-297)
chain: T1 sequence
binds: [11]
